According to publication doi:10.1101/2020.04.19.045989:
Results are given in words; binding and its absence hold for the method and conditions named. In cells and extracts the contact can be indirect. Here binding means that the protein was enriched with, or labelled near, the bait; the list need not be complete.

By UniProt entry, the sequences of proteins in these tests, tags left out.
UniProt Q92786: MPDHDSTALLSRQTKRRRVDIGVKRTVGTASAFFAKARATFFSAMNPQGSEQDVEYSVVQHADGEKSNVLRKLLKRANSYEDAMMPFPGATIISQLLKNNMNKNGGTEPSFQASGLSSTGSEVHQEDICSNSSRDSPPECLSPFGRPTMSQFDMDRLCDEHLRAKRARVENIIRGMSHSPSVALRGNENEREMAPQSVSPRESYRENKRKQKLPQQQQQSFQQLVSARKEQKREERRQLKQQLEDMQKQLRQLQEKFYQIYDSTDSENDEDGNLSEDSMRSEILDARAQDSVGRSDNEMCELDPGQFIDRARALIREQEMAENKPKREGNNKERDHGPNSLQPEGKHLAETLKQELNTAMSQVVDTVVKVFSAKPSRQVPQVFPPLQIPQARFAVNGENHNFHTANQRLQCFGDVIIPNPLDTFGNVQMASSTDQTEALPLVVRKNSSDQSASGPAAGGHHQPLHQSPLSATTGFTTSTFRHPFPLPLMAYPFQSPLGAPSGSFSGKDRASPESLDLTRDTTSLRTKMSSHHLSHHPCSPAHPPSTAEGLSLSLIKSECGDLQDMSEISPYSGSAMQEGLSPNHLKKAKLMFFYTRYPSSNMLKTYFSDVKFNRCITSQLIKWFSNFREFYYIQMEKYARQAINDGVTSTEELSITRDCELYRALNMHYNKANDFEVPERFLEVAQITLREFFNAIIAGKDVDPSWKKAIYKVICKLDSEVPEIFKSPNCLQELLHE
UniProt Q13547: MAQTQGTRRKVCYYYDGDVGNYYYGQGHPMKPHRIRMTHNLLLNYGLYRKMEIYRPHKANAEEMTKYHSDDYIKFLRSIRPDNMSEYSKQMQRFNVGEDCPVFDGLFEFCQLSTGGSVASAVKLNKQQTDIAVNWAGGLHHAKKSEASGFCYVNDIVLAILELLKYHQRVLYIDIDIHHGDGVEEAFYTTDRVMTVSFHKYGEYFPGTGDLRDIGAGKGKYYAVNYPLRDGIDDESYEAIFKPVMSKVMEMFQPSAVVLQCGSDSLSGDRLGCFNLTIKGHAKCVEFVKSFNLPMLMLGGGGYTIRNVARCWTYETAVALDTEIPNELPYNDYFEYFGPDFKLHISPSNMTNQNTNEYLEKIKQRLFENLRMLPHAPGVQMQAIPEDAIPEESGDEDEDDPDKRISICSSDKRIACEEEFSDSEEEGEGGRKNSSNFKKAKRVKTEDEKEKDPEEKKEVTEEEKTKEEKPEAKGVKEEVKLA
UniProt Q92769: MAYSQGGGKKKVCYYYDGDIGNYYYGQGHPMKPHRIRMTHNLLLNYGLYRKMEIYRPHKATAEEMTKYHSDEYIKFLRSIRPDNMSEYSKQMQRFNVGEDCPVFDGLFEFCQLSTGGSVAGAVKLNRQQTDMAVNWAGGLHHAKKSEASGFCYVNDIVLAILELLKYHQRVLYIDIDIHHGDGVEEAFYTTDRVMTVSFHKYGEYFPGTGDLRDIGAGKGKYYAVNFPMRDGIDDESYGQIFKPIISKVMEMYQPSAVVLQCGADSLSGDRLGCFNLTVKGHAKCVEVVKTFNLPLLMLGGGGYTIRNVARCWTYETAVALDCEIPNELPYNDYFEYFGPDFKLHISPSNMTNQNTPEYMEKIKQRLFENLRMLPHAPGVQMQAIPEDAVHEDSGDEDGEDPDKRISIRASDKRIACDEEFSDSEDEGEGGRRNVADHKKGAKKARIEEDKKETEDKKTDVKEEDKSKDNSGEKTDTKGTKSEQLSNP
UniProt O15379: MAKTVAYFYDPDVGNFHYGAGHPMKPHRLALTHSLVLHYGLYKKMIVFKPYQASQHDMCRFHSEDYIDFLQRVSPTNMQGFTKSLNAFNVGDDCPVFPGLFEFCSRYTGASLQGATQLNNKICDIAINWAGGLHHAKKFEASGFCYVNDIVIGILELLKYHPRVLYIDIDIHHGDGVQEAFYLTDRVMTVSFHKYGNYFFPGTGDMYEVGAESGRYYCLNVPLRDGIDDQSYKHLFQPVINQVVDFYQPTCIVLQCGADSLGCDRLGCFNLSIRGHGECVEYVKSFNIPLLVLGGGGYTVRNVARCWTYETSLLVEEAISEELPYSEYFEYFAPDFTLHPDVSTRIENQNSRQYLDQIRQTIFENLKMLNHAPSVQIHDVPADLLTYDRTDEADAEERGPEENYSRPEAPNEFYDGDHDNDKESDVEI
UniProt O75376: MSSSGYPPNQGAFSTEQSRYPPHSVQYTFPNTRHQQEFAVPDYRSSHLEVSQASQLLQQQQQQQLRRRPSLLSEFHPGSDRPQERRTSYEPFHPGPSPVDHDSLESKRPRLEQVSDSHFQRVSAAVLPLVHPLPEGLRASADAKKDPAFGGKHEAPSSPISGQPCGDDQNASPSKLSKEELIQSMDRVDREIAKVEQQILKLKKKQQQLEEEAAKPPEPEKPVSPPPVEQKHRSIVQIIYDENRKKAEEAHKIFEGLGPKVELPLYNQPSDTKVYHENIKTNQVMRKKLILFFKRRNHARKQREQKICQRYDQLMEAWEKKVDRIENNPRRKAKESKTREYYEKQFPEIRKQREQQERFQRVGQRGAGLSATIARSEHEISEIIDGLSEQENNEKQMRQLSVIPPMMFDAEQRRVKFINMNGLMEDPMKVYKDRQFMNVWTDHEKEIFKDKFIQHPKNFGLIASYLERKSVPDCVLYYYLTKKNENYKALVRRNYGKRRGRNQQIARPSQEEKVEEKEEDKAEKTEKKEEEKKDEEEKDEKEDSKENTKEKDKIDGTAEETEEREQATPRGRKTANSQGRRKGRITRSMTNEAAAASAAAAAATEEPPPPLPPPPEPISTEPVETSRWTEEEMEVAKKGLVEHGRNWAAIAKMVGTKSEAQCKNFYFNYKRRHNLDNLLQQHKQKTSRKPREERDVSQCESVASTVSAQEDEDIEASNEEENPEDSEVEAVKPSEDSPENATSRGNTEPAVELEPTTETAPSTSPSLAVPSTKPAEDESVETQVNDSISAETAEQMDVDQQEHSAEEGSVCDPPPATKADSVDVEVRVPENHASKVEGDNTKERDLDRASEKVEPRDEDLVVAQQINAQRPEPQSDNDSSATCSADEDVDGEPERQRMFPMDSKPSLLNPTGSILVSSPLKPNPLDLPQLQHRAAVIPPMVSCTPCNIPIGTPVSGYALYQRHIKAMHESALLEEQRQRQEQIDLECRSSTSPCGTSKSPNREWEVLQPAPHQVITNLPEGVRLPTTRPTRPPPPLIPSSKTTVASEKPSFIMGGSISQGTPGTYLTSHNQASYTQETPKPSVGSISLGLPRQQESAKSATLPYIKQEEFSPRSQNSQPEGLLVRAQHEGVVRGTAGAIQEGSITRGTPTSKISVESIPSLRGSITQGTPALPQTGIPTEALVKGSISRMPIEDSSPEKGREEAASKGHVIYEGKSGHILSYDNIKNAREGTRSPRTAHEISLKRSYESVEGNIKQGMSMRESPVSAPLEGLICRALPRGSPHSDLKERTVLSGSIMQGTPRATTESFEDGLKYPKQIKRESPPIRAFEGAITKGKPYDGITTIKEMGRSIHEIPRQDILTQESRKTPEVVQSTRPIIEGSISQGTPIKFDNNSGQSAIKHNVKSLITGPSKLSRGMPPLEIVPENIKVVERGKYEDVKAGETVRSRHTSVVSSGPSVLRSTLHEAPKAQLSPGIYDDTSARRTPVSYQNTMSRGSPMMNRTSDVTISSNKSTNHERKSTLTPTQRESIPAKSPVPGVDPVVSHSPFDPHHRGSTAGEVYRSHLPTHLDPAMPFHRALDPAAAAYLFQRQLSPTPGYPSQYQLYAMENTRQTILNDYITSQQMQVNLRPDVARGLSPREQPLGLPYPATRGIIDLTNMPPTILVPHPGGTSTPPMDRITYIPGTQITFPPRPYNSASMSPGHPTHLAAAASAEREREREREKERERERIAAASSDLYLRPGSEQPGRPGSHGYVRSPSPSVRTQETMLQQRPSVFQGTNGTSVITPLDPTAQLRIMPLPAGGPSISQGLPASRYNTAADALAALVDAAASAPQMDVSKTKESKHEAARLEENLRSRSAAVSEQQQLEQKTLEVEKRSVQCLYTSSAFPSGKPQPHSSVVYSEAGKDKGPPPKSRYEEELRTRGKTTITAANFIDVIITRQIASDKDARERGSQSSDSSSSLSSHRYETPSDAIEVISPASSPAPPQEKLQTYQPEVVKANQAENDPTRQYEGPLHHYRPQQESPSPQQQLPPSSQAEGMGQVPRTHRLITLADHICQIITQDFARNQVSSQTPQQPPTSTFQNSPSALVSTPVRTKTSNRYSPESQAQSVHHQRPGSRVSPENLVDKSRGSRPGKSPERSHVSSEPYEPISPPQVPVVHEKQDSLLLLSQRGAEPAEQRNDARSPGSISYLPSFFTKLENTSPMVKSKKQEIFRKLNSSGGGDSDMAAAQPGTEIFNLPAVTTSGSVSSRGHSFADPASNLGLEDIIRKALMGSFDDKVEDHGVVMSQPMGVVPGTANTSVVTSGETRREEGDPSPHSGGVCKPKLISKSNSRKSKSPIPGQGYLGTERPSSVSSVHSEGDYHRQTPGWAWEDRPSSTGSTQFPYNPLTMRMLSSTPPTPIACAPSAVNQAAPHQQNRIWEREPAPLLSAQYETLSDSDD

Molecular target: PROX1-BioID fusion protein (FUW-BirAv-hPROX1) (human) (UniProt Q92786)
Experiment: proximity labelling

binding	Substance
binds	HDAC1 (from UniProt Q13547 1-482) (enzyme)
binds	HDAC2 (from UniProt Q92769 1-488) (enzyme)
binds	HDAC3 (from UniProt O15379 1-428) (enzyme)
binds	NCoR1 (from UniProt O75376 1-2440)
